{"source": "the supplement of paper PMC8728848", "binders": {"B1": {"name": "GS7807G-bfa-506-18-506 (Bacteroides fragilis) (protein)", "chain": "ASCDKFDEINTDPDATTKVTSSLLATGLLLDITSSSASKSFIYDELLAKQMAWGESMEDYQYNVFGRSGFGGYTTLINAQKMVESVSDDNVNAYDGLAHFIKAYKIFYMSMEMGDLPYEEALQGELGLVRPKYNTQKEVMNFILSDLETAYELFSTAKDFDGDPILGGSISKWKKATTAFQLKVLMHLSKKESDADLKVKERFARIVASGSLMESNEDNLQMKYADKANTVYPFHNTNTKHAGYAMLSTMLIDKFKATGDIRMFYYAKPAKAKLNEGVTADSWDAYIGTDPSLPFEQIEKAYATEQYSGFNARYTDYPSGEPVVRLGYAEQNFILAEAAVRGWISGDASAYYKKAIRAHMEFIASNTPDEEVYHHGHPITEEAIAAFLETPAIQLSGEKEEDIEKILTQRYLASFMQHPYDVYYDYRRTGYPVLPINPATNRNTMNDRLPMRWMYPKSESDYNLEHQNEALERQFGGVDDVNKLMWILQ"}}, "assay_in_all_cases": "glycan array binding signal (z-score within array); higher = stronger binding", "settings_in_all_cases": "glycan notation: IUPAC condensed, linker removed", "key": {"[1]": {"molecular_target": "Neu5Ac(a2-3)Gal(b1-4)Glc", "procedure,_shortened": "(§1)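 Glycan array data came from 3228 arrays in the Consortium for Functional Glycomics database, and only arrays with an available protein sequence were kept. Glycan names were put into IUPAC-condensed notation, and columns mapping to the same glycan were averaged. The binding signal is a within-array Z-score, averaged across arrays of one protein sequence run at different concentrations or buffers and across linkers. A negative Z-score can be read as non-binding.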"}, "[2]": {"molecular_target": "Neu5Ac(a2-3)Gal(b1-4)GlcNAc", "procedure,_shortened": "as §1"}, "[3]": {"molecular_target": "Neu5Ac(a2-3)Gal(b1-4)GlcNAc(b1-2)Man", "procedure,_shortened": "as §1"}, "[4]": {"molecular_target": "Neu5Ac(a2-3)Gal(b1-4)GlcNAc(b1-2)Man(a1-3)[GlcNAc(b1-4)][Neu5Ac(a2-3)Gal(b1-4)GlcNAc(b1-2)Man(a1-6)]Man(b1-4)GlcNAc(b1-4)GlcNAc", "procedure,_shortened": "as §1"}, "[5]": {"molecular_target": "Neu5Ac(a2-3)Gal(b1-4)GlcNAc(b1-2)Man(a1-3)[Neu5Ac(a2-3)Gal(b1-4)GlcNAc(b1-2)Man(a1-6)]Man(b1-4)GlcNAc(b1-4)GlcNAc", "procedure,_shortened": "as §1"}, "[6]": {"molecular_target": "Neu5Ac(a2-3)Gal(b1-4)GlcNAc(b1-2)Man(a1-3)[Neu5Ac(a2-3)Gal(b1-4)GlcNAc(b1-2)Man(a1-6)]Man(b1-4)GlcNAc(b1-4)[Fuc(a1-6)]GlcNAc", "procedure,_shortened": "as §1"}, "[7]": {"molecular_target": "Neu5Ac(a2-3)Gal(b1-4)GlcNAc(b1-2)Man(a1-3)[Neu5Ac(a2-6)Gal(b1-4)GlcNAc(b1-2)Man(a1-6)]Man(b1-4)GlcNAc(b1-4)GlcNAc", "procedure,_shortened": "as §1"}, "[8]": {"molecular_target": "Neu5Ac(a2-3)Gal(b1-4)GlcNAc(b1-2)[Neu5Ac(a2-3)Gal(b1-4)GlcNAc(b1-4)]Man(a1-3)[GlcNAc(b1-4)][Neu5Ac(a2-3)Gal(b1-4)GlcNAc(b1-2)[Neu5Ac(a2-3)Gal(b1-4)GlcNAc(b1-6)]Man(a1-6)]Man(b1-4)GlcNAc(b1-4)GlcNAc", "procedure,_shortened": "as §1"}, "[9]": {"molecular_target": "Neu5Ac(a2-3)Gal(b1-4)GlcNAc(b1-2)[Neu5Ac(a2-3)Gal(b1-4)GlcNAc(b1-4)]Man(a1-3)[GlcNAc(b1-4)][Neu5Ac(a2-3)Gal(b1-4)GlcNAc(b1-4)Man(a1-6)]Man(b1-4)GlcNAc(b1-4)GlcNAc", "procedure,_shortened": "as §1"}, "[10]": {"molecular_target": "Neu5Ac(a2-3)Gal(b1-4)GlcNAc(b1-2)[Neu5Ac(a2-3)Gal(b1-4)GlcNAc(b1-6)]Man(a1-6)[Neu5Ac(a2-3)Gal(b1-4)GlcNAc(b1-2)Man(a1-3)]Man(b1-4)GlcNAc(b1-4)GlcNAc", "procedure,_shortened": "as §1"}, "[11]": {"molecular_target": "Neu5Ac(a2-3)Gal(b1-4)GlcNAc(b1-2)[Neu5Ac(a2-3)Gal(b1-4)GlcNAc(b1-6)]Man(a1-6)[Neu5Ac(a2-3)Gal(b1-4)GlcNAc(b1-2)Man(a1-3)][GlcNAc(b1-4)]Man(b1-4)GlcNAc(b1-4)GlcNAc", "procedure,_shortened": "as §1"}, "[12]": {"molecular_target": "Neu5Ac(a2-3)Gal(b1-4)GlcNAc(b1-3)Gal", "procedure,_shortened": "as §1"}, "[13]": {"molecular_target": "Neu5Ac(a2-3)Gal(b1-4)GlcNAc(b1-3)Gal(b1-3)GlcNAc", "procedure,_shortened": "as §1"}, "[14]": {"molecular_target": "Neu5Ac(a2-3)Gal(b1-4)GlcNAc(b1-3)Gal(b1-4)GlcNAc", "procedure,_shortened": "as §1"}, "[15]": {"molecular_target": "Neu5Ac(a2-3)Gal(b1-4)GlcNAc(b1-3)Gal(b1-4)GlcNAc(b1-2)Man(a1-3)[Neu5Ac(a2-3)Gal(b1-4)GlcNAc(b1-3)Gal(b1-4)GlcNAc(b1-2)Man(a1-6)]Man(b1-4)GlcNAc(b1-4)GlcNAc", "procedure,_shortened": "as §1"}, "[16]": {"molecular_target": "Neu5Ac(a2-3)Gal(b1-4)GlcNAc(b1-3)Gal(b1-4)GlcNAc(b1-3)Gal(b1-4)GlcNAc", "procedure,_shortened": "as §1"}, "[17]": {"molecular_target": "Neu5Ac(a2-3)Gal(b1-4)GlcNAc(b1-3)Gal(b1-4)GlcNAc(b1-3)Gal(b1-4)GlcNAc(b1-2)Man(a1-3)[Neu5Ac(a2-3)Gal(b1-4)GlcNAc(b1-3)Gal(b1-4)GlcNAc(b1-3)Gal(b1-4)GlcNAc(b1-2)Man(a1-6)]GalNAc", "procedure,_shortened": "as §1"}, "[18]": {"molecular_target": "Neu5Ac(a2-3)Gal(b1-4)GlcNAc(b1-3)Gal(b1-4)GlcNAc(b1-3)GalNAc", "procedure,_shortened": "as §1"}, "[19]": {"molecular_target": "Neu5Ac(a2-3)Gal(b1-4)GlcNAc(b1-3)Gal(b1-4)GlcNAc(b1-3)[Neu5Ac(a2-3)Gal(b1-4)GlcNAc(b1-3)Gal(b1-4)GlcNAc(b1-6)]GalNAc", "procedure,_shortened": "as §1"}, "[20]": {"molecular_target": "Neu5Ac(a2-3)Gal(b1-4)GlcNAc(b1-3)Gal(b1-4)GlcNAc(b1-6)[Gal(b1-3)]GalNAc", "procedure,_shortened": "as §1"}, "[21]": {"molecular_target": "Neu5Ac(a2-3)Gal(b1-4)GlcNAc(b1-3)Gal(b1-4)[Fuc(a1-3)]GlcNAc", "procedure,_shortened": "as §1"}, "[22]": {"molecular_target": "Neu5Ac(a2-3)Gal(b1-4)GlcNAc(b1-3)GalNAc", "procedure,_shortened": "as §1"}, "[23]": {"molecular_target": "Neu5Ac(a2-3)Gal(b1-4)GlcNAc(b1-3)[Neu5Ac(a2-3)Gal(b1-4)GlcNAc(b1-6)]GalNAc", "procedure,_shortened": "as §1"}, "[24]": {"molecular_target": "Neu5Ac(a2-3)Gal(b1-4)GlcNAc(b1-6)GalNAc", "procedure,_shortened": "as §1"}, "[25]": {"molecular_target": "Neu5Ac(a2-3)Gal(b1-4)GlcNAc(b1-6)[Gal(b1-3)]GalNAc", "procedure,_shortened": "as §1"}, "[26]": {"molecular_target": "Neu5Ac(a2-3)Gal(b1-4)GlcNAc(b1-6)[Neu5Ac(a2-3)Gal(b1-3)]GalNAc", "procedure,_shortened": "as §1"}, "[27]": {"molecular_target": "Neu5Ac(a2-3)Gal(b1-4)GlcNAc6S", "procedure,_shortened": "as §1"}, "[28]": {"molecular_target": "Neu5Ac(a2-3)Gal(b1-4)[Fuc(a1-3)]GlcNAc", "procedure,_shortened": "as §1"}, "[29]": {"molecular_target": "Neu5Ac(a2-3)Gal(b1-4)[Fuc(a1-3)]GlcNAc(b1-2)Man", "procedure,_shortened": "as §1"}, "[30]": {"molecular_target": "Neu5Ac(a2-3)Gal(b1-4)[Fuc(a1-3)]GlcNAc(b1-3)Gal", "procedure,_shortened": "as §1"}, "[31]": {"molecular_target": "Neu5Ac(a2-3)Gal(b1-4)[Fuc(a1-3)]GlcNAc(b1-3)Gal(b1-4)GlcNAc", "procedure,_shortened": "as §1"}, "[32]": {"molecular_target": "Neu5Ac(a2-3)Gal(b1-4)[Fuc(a1-3)]GlcNAc(b1-3)Gal(b1-4)[Fuc(a1-3)]GlcNAc(b1-3)Gal(b1-4)[Fuc(a1-3)]GlcNAc", "procedure,_shortened": "as §1"}, "[33]": {"molecular_target": "Neu5Ac(a2-3)Gal(b1-4)[Fuc(a1-3)]GlcNAc(b1-3)GalNAc", "procedure,_shortened": "as §1"}, "[34]": {"molecular_target": "Neu5Ac(a2-3)Gal(b1-4)[Fuc(a1-3)]GlcNAc(b1-6)[Gal(b1-3)]GalNAc", "procedure,_shortened": "as §1"}, "[35]": {"molecular_target": "Neu5Ac(a2-3)Gal(b1-4)[Fuc(a1-3)]GlcNAc(b1-6)[Neu5Ac(a2-3)Gal(b1-3)]GalNAc", "procedure,_shortened": "as §1"}, "[36]": {"molecular_target": "Neu5Ac(a2-3)Gal(b1-4)[Fuc(a1-3)]GlcNAc6S", "procedure,_shortened": "as §1"}, "[37]": {"molecular_target": "Neu5Ac(a2-3)Gal6S(b1-4)GlcNAc", "procedure,_shortened": "as §1"}, "[38]": {"molecular_target": "Neu5Ac(a2-3)Gal6S(b1-4)[Fuc(a1-3)]GlcNAc", "procedure,_shortened": "as §1"}}, "note": "The list shows a part of the results."}
{"binder": "B1", "values": [{"measurement": "glycan array binding signal (z-score)", "setting": "[1]", "value": -0.792}, {"measurement": "glycan array binding signal (z-score)", "setting": "[2]", "value": -0.783}, {"measurement": "glycan array binding signal (z-score)", "setting": "[3]", "value": 1.1}, {"measurement": "glycan array binding signal (z-score)", "setting": "[4]", "value": -0.522}, {"measurement": "glycan array binding signal (z-score)", "setting": "[5]", "value": -0.303}, {"measurement": "glycan array binding signal (z-score)", "setting": "[6]", "value": -0.269}, {"measurement": "glycan array binding signal (z-score)", "setting": "[7]", "value": -0.387}, {"measurement": "glycan array binding signal (z-score)", "setting": "[8]", "value": -0.526}, {"measurement": "glycan array binding signal (z-score)", "setting": "[9]", "value": -0.969}, {"measurement": "glycan array binding signal (z-score)", "setting": "[10]", "value": 0.452}, {"measurement": "glycan array binding signal (z-score)", "setting": "[11]", "value": -0.872}, {"measurement": "glycan array binding signal (z-score)", "setting": "[12]", "value": -0.67}, {"measurement": "glycan array binding signal (z-score)", "setting": "[13]", "value": -0.731}, {"measurement": "glycan array binding signal (z-score)", "setting": "[14]", "value": -0.338}, {"measurement": "glycan array binding signal (z-score)", "setting": "[15]", "value": 0.213}, {"measurement": "glycan array binding signal (z-score)", "setting": "[16]", "value": -0.109}, {"measurement": "glycan array binding signal (z-score)", "setting": "[17]", "value": 0.659}, {"measurement": "glycan array binding signal (z-score)", "setting": "[18]", "value": -0.769}, {"measurement": "glycan array binding signal (z-score)", "setting": "[19]", "value": 0.403}, {"measurement": "glycan array binding signal (z-score)", "setting": "[20]", "value": -0.419}, {"measurement": "glycan array binding signal (z-score)", "setting": "[21]", "value": -0.606}, {"measurement": "glycan array binding signal (z-score)", "setting": "[22]", "value": -0.885}, {"measurement": "glycan array binding signal (z-score)", "setting": "[23]", "value": -0.859}, {"measurement": "glycan array binding signal (z-score)", "setting": "[24]", "value": -0.022}, {"measurement": "glycan array binding signal (z-score)", "setting": "[25]", "value": -0.588}, {"measurement": "glycan array binding signal (z-score)", "setting": "[26]", "value": -1.04}, {"measurement": "glycan array binding signal (z-score)", "setting": "[27]", "value": -0.455}, {"measurement": "glycan array binding signal (z-score)", "setting": "[28]", "value": -0.878}, {"measurement": "glycan array binding signal (z-score)", "setting": "[29]", "value": -1.04}, {"measurement": "glycan array binding signal (z-score)", "setting": "[30]", "value": -0.938}, {"measurement": "glycan array binding signal (z-score)", "setting": "[31]", "value": 1.72}, {"measurement": "glycan array binding signal (z-score)", "setting": "[32]", "value": -1.06}, {"measurement": "glycan array binding signal (z-score)", "setting": "[33]", "value": -0.063}, {"measurement": "glycan array binding signal (z-score)", "setting": "[34]", "value": 0.626}, {"measurement": "glycan array binding signal (z-score)", "setting": "[35]", "value": 0.199}, {"measurement": "glycan array binding signal (z-score)", "setting": "[36]", "value": -0.532}, {"measurement": "glycan array binding signal (z-score)", "setting": "[37]", "value": -0.898}, {"measurement": "glycan array binding signal (z-score)", "setting": "[38]", "value": -1.11}]}
